Measurements reported in US20090215859A1, “Compositions and methods for modulating dhr96” (priority 2004, published 2009).
For at least one compound, name, drawing or mass did not settle the structure.

System: Canton S and DHR96E25 mutant adult flies
Test: Adult flies exposed to phenobarbital, number of actively moving flies scored
Assay type: in vivo, Drosophila melanogaster
Details: scored after 23 hours

Structure (SMILES): CCC1(c2ccccc2)C(=O)NC(=O)NC1=O [phenobarbital]
- Sensitivity to phenobarbital (actively moving flies), original and outcrossed DHR96E25 mutant lines vs Canton S: more sensitive
